Reference: the supplement of paper PMC12819154, “High-throughput peptide-centric local stability assay extends protein–ligand identification to membrane proteins, tissues and bacteria” (Nature Structural & Molecular Biology, 2025)
The other results are listed elsewhere or left out. Small differences around the control level are noise.

Chains of the proteins cited; added tags and fusions are not shown. Lines headed by an entry give the natural chain unless they say otherwise; changes in a name come on top.
UniProt Q9ERH7: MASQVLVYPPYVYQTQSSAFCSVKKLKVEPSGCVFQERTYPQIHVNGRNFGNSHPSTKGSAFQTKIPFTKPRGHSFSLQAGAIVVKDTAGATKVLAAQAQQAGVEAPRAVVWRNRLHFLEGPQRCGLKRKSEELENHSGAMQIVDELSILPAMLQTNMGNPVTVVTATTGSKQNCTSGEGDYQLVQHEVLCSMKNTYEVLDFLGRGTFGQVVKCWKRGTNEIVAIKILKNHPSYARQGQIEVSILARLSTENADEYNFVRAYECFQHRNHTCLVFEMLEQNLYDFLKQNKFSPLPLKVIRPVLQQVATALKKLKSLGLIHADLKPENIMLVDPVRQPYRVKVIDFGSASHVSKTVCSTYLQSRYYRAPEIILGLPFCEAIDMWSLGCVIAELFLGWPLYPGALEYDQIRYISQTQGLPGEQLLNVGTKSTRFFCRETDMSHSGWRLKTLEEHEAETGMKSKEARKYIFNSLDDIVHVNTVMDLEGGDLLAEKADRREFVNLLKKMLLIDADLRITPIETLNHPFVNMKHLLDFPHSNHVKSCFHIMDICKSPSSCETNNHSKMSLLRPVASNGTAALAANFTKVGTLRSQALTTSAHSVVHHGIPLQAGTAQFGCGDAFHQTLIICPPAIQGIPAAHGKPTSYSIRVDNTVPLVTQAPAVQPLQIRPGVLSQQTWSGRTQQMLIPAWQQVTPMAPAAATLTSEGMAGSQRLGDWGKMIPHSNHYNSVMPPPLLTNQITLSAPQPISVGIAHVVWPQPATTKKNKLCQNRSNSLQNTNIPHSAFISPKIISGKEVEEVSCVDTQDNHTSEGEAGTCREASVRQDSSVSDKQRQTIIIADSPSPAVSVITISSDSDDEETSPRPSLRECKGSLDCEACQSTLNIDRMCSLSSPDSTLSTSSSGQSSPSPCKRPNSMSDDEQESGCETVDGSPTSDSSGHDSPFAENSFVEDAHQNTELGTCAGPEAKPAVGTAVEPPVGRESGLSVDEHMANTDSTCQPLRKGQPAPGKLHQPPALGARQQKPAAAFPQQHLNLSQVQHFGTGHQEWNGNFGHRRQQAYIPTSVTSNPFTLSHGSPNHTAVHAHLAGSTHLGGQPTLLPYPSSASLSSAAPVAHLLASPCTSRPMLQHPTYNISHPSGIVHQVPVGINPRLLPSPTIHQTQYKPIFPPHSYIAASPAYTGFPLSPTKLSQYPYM
UniProt Q9ERI6: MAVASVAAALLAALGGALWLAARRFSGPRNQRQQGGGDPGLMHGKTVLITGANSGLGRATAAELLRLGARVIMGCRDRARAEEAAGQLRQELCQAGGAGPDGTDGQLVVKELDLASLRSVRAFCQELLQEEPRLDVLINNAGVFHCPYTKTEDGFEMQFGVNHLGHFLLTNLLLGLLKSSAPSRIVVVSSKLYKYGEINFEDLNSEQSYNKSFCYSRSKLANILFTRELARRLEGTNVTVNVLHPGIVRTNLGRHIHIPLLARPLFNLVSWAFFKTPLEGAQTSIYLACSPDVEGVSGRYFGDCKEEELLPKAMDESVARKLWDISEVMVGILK
UniProt Q9EPU0: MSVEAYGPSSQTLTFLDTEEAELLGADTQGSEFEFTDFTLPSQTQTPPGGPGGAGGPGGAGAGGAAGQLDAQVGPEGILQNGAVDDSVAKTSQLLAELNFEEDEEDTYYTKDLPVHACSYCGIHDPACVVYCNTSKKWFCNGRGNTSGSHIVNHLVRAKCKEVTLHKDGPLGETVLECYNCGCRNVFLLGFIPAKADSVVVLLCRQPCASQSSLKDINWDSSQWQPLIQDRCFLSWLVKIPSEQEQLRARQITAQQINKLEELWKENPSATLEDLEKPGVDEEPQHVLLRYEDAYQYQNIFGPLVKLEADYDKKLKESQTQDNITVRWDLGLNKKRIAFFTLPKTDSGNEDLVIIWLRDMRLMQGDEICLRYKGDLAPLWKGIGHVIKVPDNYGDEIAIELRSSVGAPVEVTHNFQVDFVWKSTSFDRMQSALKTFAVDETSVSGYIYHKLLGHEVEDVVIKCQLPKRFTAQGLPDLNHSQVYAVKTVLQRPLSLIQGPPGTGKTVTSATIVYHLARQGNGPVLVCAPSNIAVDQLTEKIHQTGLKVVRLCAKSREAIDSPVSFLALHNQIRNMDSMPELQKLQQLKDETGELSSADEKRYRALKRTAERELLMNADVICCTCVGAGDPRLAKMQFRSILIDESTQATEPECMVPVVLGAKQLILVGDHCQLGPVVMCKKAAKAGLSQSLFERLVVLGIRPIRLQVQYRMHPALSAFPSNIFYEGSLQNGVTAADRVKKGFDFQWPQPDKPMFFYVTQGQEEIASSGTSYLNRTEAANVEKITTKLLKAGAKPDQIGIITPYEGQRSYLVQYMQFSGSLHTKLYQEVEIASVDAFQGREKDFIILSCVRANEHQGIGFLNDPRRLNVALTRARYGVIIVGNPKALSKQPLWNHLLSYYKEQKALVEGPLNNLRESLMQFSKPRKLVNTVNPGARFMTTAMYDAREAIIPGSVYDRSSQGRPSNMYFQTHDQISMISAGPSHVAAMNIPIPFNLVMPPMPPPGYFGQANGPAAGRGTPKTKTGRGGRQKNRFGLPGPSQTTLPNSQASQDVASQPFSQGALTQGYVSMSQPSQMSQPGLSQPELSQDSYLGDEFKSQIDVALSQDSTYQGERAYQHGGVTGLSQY
UniProt Q9DBG3: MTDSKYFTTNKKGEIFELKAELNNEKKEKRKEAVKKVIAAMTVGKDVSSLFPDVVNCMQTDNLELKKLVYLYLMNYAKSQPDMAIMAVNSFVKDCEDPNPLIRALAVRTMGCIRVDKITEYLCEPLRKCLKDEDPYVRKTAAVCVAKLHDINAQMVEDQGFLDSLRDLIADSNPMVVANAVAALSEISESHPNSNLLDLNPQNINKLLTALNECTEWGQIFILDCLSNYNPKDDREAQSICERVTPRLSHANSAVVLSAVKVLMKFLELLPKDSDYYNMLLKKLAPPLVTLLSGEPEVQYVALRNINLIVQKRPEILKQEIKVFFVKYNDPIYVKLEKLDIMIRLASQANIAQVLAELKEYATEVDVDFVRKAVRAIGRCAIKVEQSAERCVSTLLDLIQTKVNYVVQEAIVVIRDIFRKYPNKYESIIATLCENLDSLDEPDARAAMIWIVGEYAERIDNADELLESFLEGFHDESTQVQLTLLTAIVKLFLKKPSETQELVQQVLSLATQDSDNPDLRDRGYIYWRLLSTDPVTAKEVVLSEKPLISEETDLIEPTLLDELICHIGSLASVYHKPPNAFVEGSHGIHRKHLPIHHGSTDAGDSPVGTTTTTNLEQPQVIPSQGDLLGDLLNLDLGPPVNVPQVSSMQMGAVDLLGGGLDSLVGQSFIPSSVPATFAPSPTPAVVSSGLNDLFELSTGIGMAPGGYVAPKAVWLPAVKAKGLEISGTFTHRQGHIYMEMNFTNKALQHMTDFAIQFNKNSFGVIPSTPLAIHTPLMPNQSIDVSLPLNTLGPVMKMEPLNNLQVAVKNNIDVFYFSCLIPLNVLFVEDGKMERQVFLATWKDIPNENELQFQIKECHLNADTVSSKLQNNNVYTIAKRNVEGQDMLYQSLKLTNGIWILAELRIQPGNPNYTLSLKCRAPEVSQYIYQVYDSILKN
UniProt Q9ERD7, whole entry: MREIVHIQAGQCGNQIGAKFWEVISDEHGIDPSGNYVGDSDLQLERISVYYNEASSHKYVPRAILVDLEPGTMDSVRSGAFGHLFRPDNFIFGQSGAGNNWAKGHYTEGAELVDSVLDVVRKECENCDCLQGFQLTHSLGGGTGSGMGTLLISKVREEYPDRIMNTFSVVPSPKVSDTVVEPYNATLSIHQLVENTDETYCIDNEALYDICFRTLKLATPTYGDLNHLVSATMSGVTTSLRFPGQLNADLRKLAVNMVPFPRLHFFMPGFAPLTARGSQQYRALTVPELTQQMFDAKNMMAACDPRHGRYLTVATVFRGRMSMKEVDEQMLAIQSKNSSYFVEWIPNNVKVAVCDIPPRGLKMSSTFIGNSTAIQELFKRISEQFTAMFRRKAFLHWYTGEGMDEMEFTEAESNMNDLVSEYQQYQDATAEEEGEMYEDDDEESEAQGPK
UniProt Q9DBA6: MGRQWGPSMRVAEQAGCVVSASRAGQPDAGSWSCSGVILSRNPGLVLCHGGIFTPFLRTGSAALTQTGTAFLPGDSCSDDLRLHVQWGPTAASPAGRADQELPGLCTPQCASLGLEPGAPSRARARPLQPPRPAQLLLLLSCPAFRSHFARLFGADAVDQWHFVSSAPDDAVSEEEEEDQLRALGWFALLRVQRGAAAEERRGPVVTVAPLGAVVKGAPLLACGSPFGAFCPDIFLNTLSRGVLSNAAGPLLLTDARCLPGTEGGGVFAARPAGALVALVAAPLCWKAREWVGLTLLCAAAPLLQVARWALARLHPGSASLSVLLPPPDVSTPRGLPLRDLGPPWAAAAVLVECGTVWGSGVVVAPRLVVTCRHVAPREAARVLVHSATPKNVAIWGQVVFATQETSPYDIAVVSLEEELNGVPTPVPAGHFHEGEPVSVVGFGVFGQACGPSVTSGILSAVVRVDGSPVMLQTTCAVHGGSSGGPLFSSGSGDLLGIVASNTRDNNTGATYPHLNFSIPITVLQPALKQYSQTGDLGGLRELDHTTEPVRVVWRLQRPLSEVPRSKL
UniProt Q9DBY8: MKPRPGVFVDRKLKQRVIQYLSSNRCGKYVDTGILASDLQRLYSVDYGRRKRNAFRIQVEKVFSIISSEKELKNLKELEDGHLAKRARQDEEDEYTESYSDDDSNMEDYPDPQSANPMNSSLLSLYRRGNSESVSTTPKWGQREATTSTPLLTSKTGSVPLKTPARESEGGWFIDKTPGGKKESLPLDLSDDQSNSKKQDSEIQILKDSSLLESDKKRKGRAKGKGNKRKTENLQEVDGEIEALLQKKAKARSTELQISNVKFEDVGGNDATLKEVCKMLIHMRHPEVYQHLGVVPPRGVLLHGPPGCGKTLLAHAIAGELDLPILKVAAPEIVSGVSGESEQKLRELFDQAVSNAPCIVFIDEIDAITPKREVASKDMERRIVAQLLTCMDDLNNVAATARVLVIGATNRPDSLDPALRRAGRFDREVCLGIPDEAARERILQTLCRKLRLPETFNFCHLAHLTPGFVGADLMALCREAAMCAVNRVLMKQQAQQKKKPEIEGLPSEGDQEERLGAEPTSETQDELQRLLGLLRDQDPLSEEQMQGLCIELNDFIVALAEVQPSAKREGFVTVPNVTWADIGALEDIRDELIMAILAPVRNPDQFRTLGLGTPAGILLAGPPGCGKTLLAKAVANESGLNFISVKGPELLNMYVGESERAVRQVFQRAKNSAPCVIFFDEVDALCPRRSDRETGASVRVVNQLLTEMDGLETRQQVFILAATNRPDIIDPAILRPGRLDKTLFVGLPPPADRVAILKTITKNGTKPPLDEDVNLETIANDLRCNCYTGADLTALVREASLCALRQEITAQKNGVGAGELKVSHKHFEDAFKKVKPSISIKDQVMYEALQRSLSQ
UniProt Q9ERH6: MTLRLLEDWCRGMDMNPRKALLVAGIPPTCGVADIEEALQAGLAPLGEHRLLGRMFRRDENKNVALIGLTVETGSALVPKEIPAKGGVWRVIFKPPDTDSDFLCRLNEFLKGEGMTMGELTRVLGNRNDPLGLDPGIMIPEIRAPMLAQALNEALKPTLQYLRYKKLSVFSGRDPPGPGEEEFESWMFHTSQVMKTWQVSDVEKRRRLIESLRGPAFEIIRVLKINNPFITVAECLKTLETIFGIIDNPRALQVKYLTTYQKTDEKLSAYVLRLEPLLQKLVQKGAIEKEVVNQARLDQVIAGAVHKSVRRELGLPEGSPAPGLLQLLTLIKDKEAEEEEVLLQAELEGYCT
UniProt Q9DBU6: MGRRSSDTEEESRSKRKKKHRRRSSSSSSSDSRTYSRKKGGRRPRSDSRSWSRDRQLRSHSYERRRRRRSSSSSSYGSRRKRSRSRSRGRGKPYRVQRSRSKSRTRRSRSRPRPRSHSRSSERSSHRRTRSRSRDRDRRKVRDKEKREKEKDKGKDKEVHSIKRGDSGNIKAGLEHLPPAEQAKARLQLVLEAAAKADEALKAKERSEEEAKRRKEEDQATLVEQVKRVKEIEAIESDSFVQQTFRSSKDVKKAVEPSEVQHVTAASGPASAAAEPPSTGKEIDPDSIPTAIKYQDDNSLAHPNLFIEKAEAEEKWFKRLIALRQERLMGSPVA
UniProt Q9DBT3: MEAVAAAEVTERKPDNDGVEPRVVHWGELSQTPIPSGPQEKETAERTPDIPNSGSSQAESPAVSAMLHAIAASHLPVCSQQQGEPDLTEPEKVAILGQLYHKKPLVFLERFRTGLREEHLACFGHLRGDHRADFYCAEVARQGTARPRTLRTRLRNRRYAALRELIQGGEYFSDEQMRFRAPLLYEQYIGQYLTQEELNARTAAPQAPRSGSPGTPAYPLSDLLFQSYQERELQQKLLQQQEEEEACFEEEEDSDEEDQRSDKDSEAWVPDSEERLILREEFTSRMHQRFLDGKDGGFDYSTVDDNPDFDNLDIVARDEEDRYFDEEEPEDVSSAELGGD

The targets below were run with CN[C@@H]1C[C@H]2O[C@@](C)([C@@H]1OC)n1c3ccccc3c3c4c(c5c6ccccc6n2c5c31)C(=O)NC4 [staurosporine] (assay: log2 fold change of tryptic peptide abundance, ligand vs vehicle (limited proteolysis) (log2 ratio); higher = more trypsin-susceptible (destabilized)). Details: ligand concentration: 20 uM; sample: mouse liver crude lysate; replicate design: treated separately.
Target “UniProt Q9ERH7 (peptide sequence: GTNEIVAIK, peptide start residue: 218)” has a log2 fold change of -0.619. For “UniProt Q9ERI6 (peptide sequence: ELDLASLR, peptide start residue: 111)”, the log2 fold change was -0.285. For “UniProt Q9DBB5 (peptide sequence: IHQLLPHIAFK, peptide start residue: 177)”, the log2 fold change was -0.0803. “UniProt Q9EPU0 (peptide sequence: LMQGDEICLR, peptide start residue: 362)” gave a log2 fold change of -0.394. Target “UniProt Q9DBG3 (peptide sequence: LLSTDPVTAK, peptide start residue: 529)” has a log2 fold change of -0.292. “UniProt Q9ERD7 (peptide sequence: YLTVATVFR, peptide start residue: 310)” showed a log2 fold change of -0.11. For “UniProt Q9DBA6 (peptide sequence: LHVQWGPTAASPAGR, peptide start residue: 83)”, the log2 fold change was -0.25. “UniProt Q9DB15 (peptide sequence: LVESLPQEIK, peptide start residue: 167)” gave a log2 fold change of -0.0592. “UniProt Q9DBY8 (peptide sequence: MKPRPGVFVDR, peptide start residue: 1)” was tested, and the log2 fold change was 0.297. For “UniProt Q9ERH6 (peptide sequence: YKKLSVFSGR, peptide start residue: 164)”, the log2 fold change was 0.285. Target “UniProt Q9DBU6 (peptide sequence: YQDDNSLAHPNLFIEK, peptide start residue: 294)” has a log2 fold change of 0.443. “UniProt Q9DBT3 (peptide sequence: KPLVFLER, peptide start residue: 103)” gave a log2 fold change of -0.121.
